Data published in PubChem BioAssay AID540256 (National Center for Advancing Translational Sciences (NCATS), 2011).
The campaign covered roughly 300,000 compounds. About 3,700 (1.2%) were called active. Inconclusive results, whose numbers are uncertain, are shown with a selection of clear calls. Calls follow the shape of the full dose curve; tested in HEK293 cells. Where the call is inconclusive, the potency comes from a doubtful curve fit.

Test: qHTS for Inhibitors of binding or entry into cells for Lassa Virus; also: nearly all actives have a fitted effect of over 50% in size
Conditions: Lassa virus pseudotype entry inhibition, cell reporter; activity change, negative = inhibition: at 37.9 µM (top of the series) unless noted
% is scaled to controls: 0 for no effect and ±100 for the full control effect; potency is read from the fitted curve at half-maximal effect.

Row | Compound | Potency | activity change, negative = inhibition
1 | O=C(O)Cc1ccccc1C(=O)O | inconclusive: 6.51 µM [activator, partial curve, poor fit] | –
2 | O=c1c2ccccc2nc(/C=C/c2cc(Br)ccc2O)n1CCCO | active: 10 µM | –
3 | Cc1cc(Br)c(Cl)cc1NC(=O)CN1C(=O)C2C3CC(c4ccccc4)C(C3)C2C1=O (stereo not drawn) | inconclusive: 29.1 µM [inhibitor, single point] | –
4 | Cc1ccc(-c2[nH]nc3c2C(c2ccccc2OC(=O)N2CCOCC2)C(C#N)=C(N)O3)cc1 (stereo not drawn) | inactive | –
5 | O=C(NC1CCCC1)c1ccc(Cl)c(S(=O)(=O)N2CCCCC2)c1 | inactive | –
6 | COc1ccc(/C=C(\NC(=O)c2ccc(C)cc2)C(=O)NCCCn2ccnc2)cc1OC | – | inconclusive: 17.6% [activator]
7 | O=C(Nc1ccccc1)c1cccc(N2C(=O)C3C4C=CC(C5CC45)C3C2=O)c1 (stereo not drawn) | inconclusive: 35.5 µM [inhibitor, partial curve, poor fit] | –
8 | O=C(COc1coc(CN2CCN(c3ccccc3F)CC2)cc1=O)Nc1ccccc1 | inactive | –
9 | O=C(NCCC1CCCCN1S(=O)(=O)c1ccc(F)cc1)C(=O)NCc1cccnc1 (stereo not drawn) | inconclusive: 0.631 µM [inhibitor, single point] | –
10 | Cc1ccc(C2(C)CC(C)(C)N(C(=O)CSc3nnc(C)s3)c3ccccc32)cc1 (stereo not drawn) | active: 7.94 µM | –
11 | O=C(NCc1ccc(Cl)cc1)C(=O)Nc1cccc(Br)c1 | inactive | –
12 | Cn1ccc2c(-c3ccc(CO)cc3)cc3c(c21)C1CCC3C1 (stereo not drawn) | inconclusive: 0.0445 µM [inhibitor, full curve, poor fit] | –
13 | Cc1ccccc1Nc1nc(N)nc(CSc2nc3ccccc3s2)n1 | inconclusive: 35.5 µM [inhibitor, single point] | –
14 | Cc1ccc(CN(C(=O)c2ccccc2Br)C2CCS(=O)(=O)C2)o1 (stereo not drawn) | inactive | –
15 | O=C(NCCNC(=O)c1cccnc1)c1ccc(Br)cc1 | inconclusive: 8.91 µM [activator, single point] | –
16 | Oc1cccc(C=NN=C2c3ccccc3-c3ccccc32)c1 | inconclusive: 22.4 µM [inhibitor, single point] | –
17 | CCOc1ccc(NC(=O)CN(C)C(=O)c2cccnc2Sc2ccccc2Cl)cc1OCC | inactive | –
18 | COc1ccc(N2CCN(C(=O)CN(Cc3ccc(Cl)cc3)S(C)(=O)=O)CC2)cc1 | inconclusive: 23.1 µM [inhibitor, single point] | –
19 | CCCCNc1nc2c(c(=O)n(C)c(=O)n2C)n1Cc1cccc(OC)c1 | inconclusive: 0.103 µM [inhibitor, full curve, poor fit] | –
20 | COC(=O)/C=C1/C(=O)N/C(=N\c2nc(C)cc(C)n2)N1c1ccc(OC)cc1 | inconclusive: 6.31 µM [inhibitor, single point] | –
21 | Cn1nnnc1SCSc1nnnn1C | inactive | –
22 | CC(C)OCCCNC(=O)Cn1ccc2cc(S(=O)(=O)N3CCCCC3)ccc21 | inactive | –

Row | Compound | Potency | activity change, negative = inhibition
23 | CN(CC(=O)Nc1cccc(F)c1)C(=O)CC1CC2CCC1C2 (stereo not drawn) | inconclusive: 0.891 µM [activator, full curve] | –
24 | CCn1cc(C(=O)NC(=S)Nc2cccc(O)c2)cn1 | inactive | –
25 | O=C(CCC1CCCCC1)Nc1ncn[nH]1 | inconclusive: 29.1 µM [activator, partial curve, poor fit] | –
26 | CNc1nc(-c2ccccc2)cc(C)c1S(C)(=O)=O | inactive | –
27 | O=C(CSc1nc2ccccc2c(=O)n1-c1ccc(F)cc1)Nc1ccc2c(c1)CCC2 | inconclusive: 35.5 µM [inhibitor, single point] | –
28 | Cc1cccc(-c2nc3ccccc3c(=O)n2NC(=O)/C=C/c2ccc([N+](=O)[O-])cc2)c1 | inconclusive: 23.1 µM [inhibitor, single point] | –
29 | COCCNC(=O)c1ccc2nc(CCc3ccccc3)oc2c1 | inconclusive: 35.5 µM [inhibitor, single point] | –
30 | Cc1cccc(OCCCC(=O)NNC(=O)c2cccc(N(C)C)c2)c1 | inactive | –
31 | COc1ccc(Oc2cnn(-c3ccccc3)c(=O)c2Br)cc1 | inconclusive: 35.5 µM [inhibitor, single point] | –
32 | C/C(=C\c1ccccc1)C(=O)NCCc1ccccc1 | inconclusive: 12.6 µM [inhibitor, partial curve, poor fit] | –
33 | CC(C)(C)n1nnnc1C(c1ccc(Cl)cc1)N(Cc1cccnc1)Cc1ccco1 (stereo not drawn) | inconclusive: 15.8 µM [inhibitor, single point] | –
34 | COc1ccccc1-c1cc(C(=O)N/N=C/c2cccs2)c2ccccc2n1 | inconclusive: 3.98 µM [inhibitor, partial curve, poor fit] | –
35 | O=C(CCCOc1ccccc1)Nc1ccc(S(=O)(=O)N2CCOCC2)cc1 | inactive | –
36 | Cc1ccc(/C=N/Nc2cc(C)nc(NCc3ccccc3)n2)cc1 | inconclusive: 4.47 µM [inhibitor, partial curve, poor fit] | –
37 | Cc1ccc(NC(=O)CC2=NC(=O)C(CC(=O)Nc3ccccc3C)S2)cc1 (stereo not drawn) | inconclusive: 10 µM [inhibitor, partial curve, poor fit] | –
38 | O=C(NCc1ccco1)C(c1cccs1)N(C(=O)Cc1cccs1)c1ccccc1 (stereo not drawn) | inconclusive: 29.1 µM [inhibitor, single point] | –
39 | COc1ccc(N(C)S(=O)(=O)c2cccc(C(=O)OCC(=O)N3CC(C)CC(C)C3)c2)cc1 (stereo not drawn) | inconclusive: 22.4 µM [inhibitor, single point] | –
40 | O=C(Nc1ccc2c(c1)CCCN2C(=O)c1ccccc1)c1ccccc1 | inconclusive: 5.01 µM [inhibitor, full curve, poor fit] | –
41 | Cc1ccc2c(c1)C(Cc1nc3ccccc3c(=O)n1-c1ccc(Br)cc1)C(=O)N2 (stereo not drawn) | inconclusive: 35.5 µM [inhibitor, single point] | –
42 | CC(=O)Nc1c(C(=O)Nc2cccc(C)c2)nnn1-c1ccc(C)cc1 | – | inconclusive: 0.157% [activator] [at 46.1 µM]
43 | CCOC(=O)c1ccc(NC(=O)c2c(C)oc3nc(C)nc(N4CCCC4)c23)cc1 | inconclusive: 35.5 µM [activator, single point] | –
